Assay results taken from paper PMC7364481.
For at least one entry, the source does not settle the construct or the ends of the probe. At least one verdict was read from the data and is not stated in words by the source.

Sequences of proteins named here, by UniProt entry; tags and fusion partners are left off. Residues count along the entry.
UniProt O35085, 220-392 S312A: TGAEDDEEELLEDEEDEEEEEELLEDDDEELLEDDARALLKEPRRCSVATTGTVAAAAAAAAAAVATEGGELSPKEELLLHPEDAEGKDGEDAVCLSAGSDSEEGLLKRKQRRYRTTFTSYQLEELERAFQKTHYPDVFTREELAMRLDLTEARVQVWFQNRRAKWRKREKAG
UniProt O35085, 220-392 S319E: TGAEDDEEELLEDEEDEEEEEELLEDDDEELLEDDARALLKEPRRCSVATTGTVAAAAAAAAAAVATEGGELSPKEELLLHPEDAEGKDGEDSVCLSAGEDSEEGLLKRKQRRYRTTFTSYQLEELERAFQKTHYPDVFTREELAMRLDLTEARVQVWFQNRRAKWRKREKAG
UniProt O35085, 220-392 S316E: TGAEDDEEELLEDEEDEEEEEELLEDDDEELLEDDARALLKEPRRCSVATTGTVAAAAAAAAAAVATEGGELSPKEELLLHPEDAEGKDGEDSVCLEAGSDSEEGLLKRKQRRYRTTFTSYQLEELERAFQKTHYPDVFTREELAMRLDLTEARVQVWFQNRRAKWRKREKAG
UniProt O35085, 220-392 S319A: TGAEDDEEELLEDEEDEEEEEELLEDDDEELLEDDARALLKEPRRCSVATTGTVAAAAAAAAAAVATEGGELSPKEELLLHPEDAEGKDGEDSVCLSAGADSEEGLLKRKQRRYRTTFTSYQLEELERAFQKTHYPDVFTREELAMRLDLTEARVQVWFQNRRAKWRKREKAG
UniProt O35085, 220-392 S316A: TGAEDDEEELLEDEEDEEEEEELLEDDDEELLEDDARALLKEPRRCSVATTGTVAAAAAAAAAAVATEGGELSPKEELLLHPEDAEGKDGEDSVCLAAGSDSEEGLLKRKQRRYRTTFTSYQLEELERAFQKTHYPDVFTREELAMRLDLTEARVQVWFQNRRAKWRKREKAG
UniProt O35085, 220-392 S312E: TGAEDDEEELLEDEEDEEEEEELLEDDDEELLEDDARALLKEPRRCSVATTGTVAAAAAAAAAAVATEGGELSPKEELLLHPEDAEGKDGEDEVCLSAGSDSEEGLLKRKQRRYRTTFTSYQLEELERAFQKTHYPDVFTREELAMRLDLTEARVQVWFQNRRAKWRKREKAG

Assays:
Experiment in all cases: EMSA
Details in all cases: 5 ug protein per lane, LightShift chemiluminescent EMSA kit, 6% polyacrylamide gel, binding buffer, recombinant protein, residues …, protein details: N-terminal GST (pGEX-4T-2), label: biotin
[1] = biological target: GST-ARX(220-392) S312 LOF S312A (UniProt O35085)
[2] = biological target: GST-ARX(220-392) S319 GOF S319E (UniProt O35085)
[3] = biological target: GST-ARX(220-392) S316 GOF S316E (UniProt O35085)
[4] = biological target: GST-ARX(220-392) S319 LOF S319A (UniProt O35085)
[5] = biological target: GST-ARX(220-392) S316 LOF S316A (UniProt O35085)
[6] = biological target: GST-ARX(220-392) S312 GOF S312E (UniProt O35085)

Measured: binding result

TCTTAACATTAAGGTAATTAAATATGAGCTCAC (double strand) [SIX1 probe]
binds: all assays above
